PubChem BioAssay AID504793 – Drosophila RNAi Screening Center, 2011
The screen tested about 23,000 reagents; shown is an unselected part of those with a known target gene and a result. In the full data, 62 (0.27%) were called active. 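Calls come from follow-up tests whose scores are not deposited, so confirmed genes may have low counts here; counts are not normalised per plate.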 Raw values vary from plate to plate and are shown uncorrected. Unmarked entries are inactive. Names joined by + are all predicted targets of the reagent.

Test: 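Whole-genome screen for parts of the DNA damage checkpoint at G2/M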 (primary screen)
Cells: Drosophila S2R+ cells
Reagent: long dsRNA against Drosophila genes, about 0.25 µg dsRNA per well
Duration: 4 days of dsRNA, then 4 hours of drug before read-out
Challenge: doxorubicin 0.5 µM for 4 hours to cause double-strand breaks, in cells also given a low, harmless dose of dsRNA against nbs to sensitise the assay
Read-out: 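Mitotic index as the number of phospho-histone H3-positive cells in each well following doxorubicin, given as raw counts without normalisation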
Scale: mitotic cells: higher = more cells in mitosis, weaker G2 arrest
Call rule: 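Genes are called active only when high mitotic counts were reproduced with independent dsRNAs and mitosis was checked for delay without damage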
Meaning of the calls: active = confirmed in follow-up tests; inactive = not confirmed

CG17159 + CG17162 [DRSC20899] | mitotic cells, replicate 1 = 9
CG17159 + CG17162 [DRSC20900] | mitotic cells, replicate 1 = 2
Ctps [DRSC09342] | mitotic cells, replicate 1 = 2
Ctps [DRSC10728] | mitotic cells, replicate 1 = 7
Ctps [DRSC10729] | mitotic cells, replicate 1 = 4
ppk16 [DRSC02736] | mitotic cells, replicate 1 = 2
ETH [DRSC04612] | mitotic cells, replicate 1 = 7
CG31855 [DRSC02968] | mitotic cells, replicate 1 = 6
CG31855 [DRSC25858] | mitotic cells, replicate 1 = 7
Tmem214 [DRSC02924] | mitotic cells, replicate 1 = 6
Tmem214 [DRSC02925] | mitotic cells, replicate 1 = 6
Tmem214 [DRSC28172] | mitotic cells, replicate 1 = 9
zld [DRSC23098] | mitotic cells, replicate 1 = 10
zld [DRSC25802] | mitotic cells, replicate 1 = 10
CG30458 [DRSC28635] | mitotic cells, replicate 1 = 9
hfp [DRSC08731] | mitotic cells, replicate 1 = 6
hfp [DRSC08732] | mitotic cells, replicate 1 = 3
hfp [DRSC22408] | mitotic cells, replicate 1 = 7
hfp [DRSC25143] | mitotic cells, replicate 1 = 7
Seipin [DRSC18654] | mitotic cells, replicate 1 = 8
CG2065 [DRSC06813] | mitotic cells, replicate 1 = 3
CG2065 [DRSC21328] | mitotic cells, replicate 1 = 75
CG2065 [DRSC29164] | mitotic cells, replicate 1 = 8
scny [DRSC10509] | mitotic cells, replicate 1 = 11
scny [DRSC23229] | mitotic cells, replicate 1 = 13
scny [DRSC27520] | mitotic cells, replicate 1 = 20

3 entries already listed, ordered by “mitotic cells, replicate 1”, high to low:
ETH [DRSC04612] | mitotic cells, replicate 1 = 7
CG31855 [DRSC02968] | mitotic cells, replicate 1 = 6
ppk16 [DRSC02736] | mitotic cells, replicate 1 = 2

Next records follow:
CG14715 [DRSC14938] | mitotic cells, replicate 1 = 7
Hers + amn [DRSC20306] | mitotic cells, replicate 1 = 5
CG4462 [DRSC15583] | mitotic cells, replicate 1 = 3
CG4462 [DRSC25650] | mitotic cells, replicate 1 = 9
CG10734 [DRSC05998] | mitotic cells, replicate 1 = 10
pie [DRSC03590] | mitotic cells, replicate 1 = 4
CG13615 [DRSC14618] | mitotic cells, replicate 1 = 12
CG13615 [DRSC24018] | mitotic cells, replicate 1 = 6
Rpn5 [DRSC12367] | mitotic cells, replicate 1 = 32
Rpn5 [DRSC28279] | mitotic cells, replicate 1 = 46
Muc18B [DRSC21644] | mitotic cells, replicate 1 = 9
Muc18B [DRSC28889] | mitotic cells, replicate 1 = 1
Cdc42 [DRSC20228] | mitotic cells, replicate 1 = 4
Cdc42 [DRSC25134] | mitotic cells, replicate 1 = 8
CG42675 [DRSC12157] | mitotic cells, replicate 1 = 4
CG42675 [DRSC21868] | mitotic cells, replicate 1 = 15
CG42675 [DRSC24431] | mitotic cells, replicate 1 = 9
CG42675 [DRSC26577] | mitotic cells, replicate 1 = 6
